From US9029413B2, “Treatment of viral infections by modulation of host cell metabolic pathways” (The Trustees of Princeton University, priority 2007, dated 2015)
At least one structure is not confirmed: it was looked up by name or label, or the drawing left a doubt.

Experiments:
HCMV = conditions: cultured endothelial cells; cited from earlier work
[1] = system: hepatitis B virus (HBV) ayw strain; experiment: Extracellular HBV DNA from HepG2-2.2.15 cells, real-time quantitative PCR; conditions: positive assay control

| SMILES | inhibition of HCMV replication (HCMV) | production of extracellular HBV DNA [1] |
| --- | --- | --- |
| CC(C)n1c(/C=C/C(O)CC(O)CC(=O)O)c(-c2ccc(F)cc2)c2ccccc21 (centres unmarked) [Fluvastatin, fluvastatin] | partially inhibit |  |
| Nc1ccn([C@@H]2CS[C@H](CO)O2)c(=O)n1 [lamivudine, Lamivudine] |  | produces its typical anti-HBV effects |
